Experimental data as given in PMC10978942.
Results are given in words; binding and its absence hold for the method and conditions named. Tags and fused reporters may be left off the sequences shown.

Target: T1, ACE1^R383Q-BD (Trichoderma reesei) (UniProt Q9P8W3)
T1 sequence: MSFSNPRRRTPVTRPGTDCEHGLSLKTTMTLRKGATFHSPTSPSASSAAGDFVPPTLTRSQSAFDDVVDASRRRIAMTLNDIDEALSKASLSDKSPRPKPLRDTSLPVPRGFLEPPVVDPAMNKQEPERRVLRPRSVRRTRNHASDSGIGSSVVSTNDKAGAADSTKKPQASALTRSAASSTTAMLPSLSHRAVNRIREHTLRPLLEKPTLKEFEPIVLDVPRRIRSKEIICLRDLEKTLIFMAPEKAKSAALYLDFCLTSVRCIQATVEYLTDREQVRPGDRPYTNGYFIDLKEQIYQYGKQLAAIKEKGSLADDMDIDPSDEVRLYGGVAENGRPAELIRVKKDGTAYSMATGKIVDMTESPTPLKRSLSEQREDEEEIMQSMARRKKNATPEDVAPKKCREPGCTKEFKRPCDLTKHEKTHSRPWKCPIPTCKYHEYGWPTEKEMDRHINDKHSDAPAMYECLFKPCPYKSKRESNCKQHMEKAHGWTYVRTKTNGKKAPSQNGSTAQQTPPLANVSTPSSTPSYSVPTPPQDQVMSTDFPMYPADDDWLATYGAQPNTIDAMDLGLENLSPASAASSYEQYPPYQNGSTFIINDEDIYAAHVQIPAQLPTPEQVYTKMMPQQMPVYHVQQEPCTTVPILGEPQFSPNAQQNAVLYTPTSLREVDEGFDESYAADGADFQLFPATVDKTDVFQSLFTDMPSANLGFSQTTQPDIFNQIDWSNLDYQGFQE
Test: two-hybrid; Matchmaker Gold Yeast Two-Hybrid System; trsam or xyr1 on the GAL4 activation domain (pGADT7), regulators on the GAL4 DNA-binding domain (pGBKT7); growth without histidine and adenine, 3-amino-1,2,4-triazole, X-alpha-gal

B1: XYR1-AD (protein, UniProt G0RLE8 1-920)
chain: MLSNPLRRYSAYPDISSASFDPNYHGSQSHLHSINVNTFGNSHPYPMQHLAQHAELSSSRMIRASPVQPKQRQGSLIAARKNSTGTAGPIRRRISRACDQCNQLRTKCDGLHPCAHCIEFGLGCEYVRERKKRGKASRKDIAAQQAAAAAAQHSGQVQDGPEDQHRKLSRQQSESSRGSAELAQPAHDPPHGHIEGSVSSFSDNGLSQHAAMGGMDGLEDHHGHVGVDPALGRTQLEASSAMGLGAYGEVHPGYESPGMNGHVMVPPSYGAQTTMAGYSGISYAAQAPSPATYSSDGNFRLTGHIHDYPLANGSSPSWGQSDLRYPVLEPLLPHLGNILPVSLACDLIDLYFSSSSSAQMHPMSPYVLGFVFRKRSFLHPTNPRRCQPALLASMLWVAAQTSEASFLTSLPSARSKVCQKLLELTVGLLQPLIHTGTNSPSPKTSPVVGAAALGVLGVAMPGSLNMDSLAGETGAFGAIGSLDDVITYVHLATVVSASEYKGASLRWWGAAWSLARELKLGRELPPGNPPANQEDGEGLSEDVDEHDLNRNNTRFVTEEEREERRRAWWLVYIVDRHLALCYNRPLFLLDSECSDLYHPMDDIKWQAGKFRSHDAGNSSINIDSSMTDEFGDSPRAARGAHYECRGRSIFGYFLSLMTILGEIVDVHHAKSHPRFGVGFRSARDWDEQVAEITRHLDMYEESLKRFVAKHLPLSSKDKEQHEMHDSGAVTDMQSPLSVRTNASSRMTESEIQASIVVAYSTHVMHVLHILLADKWDPINLLDDDDLWISSEGFVTATSHAVSAAEAISQILEFDPGLEFMPFFYGVYLLQGSFLLLLIADKLQAEASPSVIKACETIVRAHEACVVTLSTEYQRNFSKVMRSALALIRGRVPEDLAEQQQRRRELLALYRWTGNGTGLAL
binding: no binding
